Measured values published in PubChem BioAssay AID504834 (National Center for Advancing Translational Sciences (NCATS), 2011).
About 22,000 (6.9%) of roughly 320,000 compounds were called active. Inconclusive results, whose numbers are uncertain, are shown with a selection of clear calls. Calls come from the whole dose curve; as a rule, active = well fitted inhibition curve with a large enough effect; inconclusive = small, poorly fitted or top-dose-only effect, or another doubt; inactive = no such curve, though single readings can be large or run the other way. Potencies of inconclusive entries are doubtful fits and often do not repeat.

assay: Primary qHTS for delayed death inhibitors of the malarial parasite plastid, 96 hour incubation; details: P. falciparum luciferase reporter growth; series mostly up to 28.7 µM; activity change, negative = inhibition: at the top concentration
Outline: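 Two parasite generations (96 h, 37 C, 5% CO2) of compound exposure in infected erythrocytes (0.05% parasitemia, 2% hematocrit). Luciferase-reporter P. falciparum; decreased luminescence indicates inhibited growth, aimed at apicoplast-acting delayed death.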
% is set by controls: 0 for no effect and ±100 for the full control effect; potency is the fitted concentration of half-maximal effect.

Structure (SMILES) | Potency | activity change, negative = inhibition
CC(NC(=O)c1ccco1)C1COc2ccccc2O1 (centres undefined) | active: 10.4 µM | –
CCOC(=O)C1=CCN(Cc2ccccc2)CC1 | inconclusive: 16.5 µM [inhibitor, single point] | –
Cc1ccc2nc(N3CCN(C(=O)CCCC(=O)O)CC3)nc(-c3ccccc3)c2c1 | inconclusive: 18.5 µM [inhibitor, single point] | –
CN(CC(=O)Nc1ccc(F)cc1)C(=O)COC(=O)CN1C(=O)NC2(CCCC2)C1=O | – | inactive: 17.2%
COc1cccc(N=Cc2nc(-c3ccccc3)oc2OC(C)=O)c1 | – | inactive: 147%
COc1ccc(-c2nnc(OCc3nc4ccccc4n3C)c3ccccc23)cc1 | inconclusive: 13.1 µM [inhibitor, single point] | –
COC(=O)c1c(C)oc2ccc(OC(=O)c3cccs3)cc12 | inconclusive: 13.1 µM [inhibitor, partial curve, poor fit] | –
CC1Cc2ccccc2N1Cc1nc2scc(-c3cccs3)c2c(=O)[nH]1 (centres undefined) | inconclusive: 18.5 µM [inhibitor, single point] | –
Cc1ccc(C)c2[nH]c(=O)c(CN(CC3CCCO3)C(=O)NC3CCCCC3)cc12 (centres undefined) | – | inactive: 62.5%
COc1ccc(N2CCN(Cc3cc(=O)oc4cc(C)c(Cl)c(C)c34)CC2)cc1 | – | inactive: -21.3%
CC1CCN(C(=O)c2[nH]cnc2C(=O)N[C@@H](CCCCNC(=O)OC(C)(C)C)C(=O)OC(C)(C)C)CC1 | inconclusive: 11.7 µM [inhibitor, single point] | –
COc1ccc(OC)c(NC(=O)c2cnc3n(c2=O)CCS3)c1 | active: 8.28 µM | –
Cc1ccc(-c2nc(SCC(=O)Nc3cc(C)on3)c3c(=O)n(C)c(=O)n(C)c3n2)cc1 | – | inactive: -24.7%
C/C(CC(=O)Nc1ccc2c(c1)OCCO2)=N\NC(=O)COc1ccc(C)cc1 | inconclusive: 4.65 µM [inhibitor, partial curve] | –
O=C(/C=C/Nc1ccccc1F)c1cccs1 | inconclusive: 11.7 µM [inhibitor, single point] | –
Nc1ccc(N2CCN(C(=O)c3ccco3)CC2)cc1 | inconclusive: 10.4 µM [inhibitor, single point] | –
CCC(CC)C(=O)Nc1cccc(/C(C)=N/NC(=O)c2c(Br)cnn2C)c1 | inconclusive: 1.17 µM [inhibitor, partial curve] | –
COc1cc(/C=C2/C(=N)N3OC(C)=CC3=NC2=O)ccc1OC(=O)c1ccco1 | active: 13.1 µM | –
CCOc1ccc(NC(=O)Cn2cncc2-c2ccc([N+](=O)[O-])cc2)cc1 | inconclusive: 18.5 µM [inhibitor, single point] | –
CCOC(=O)Cn1cnc2scc(-c3ccc(C)cc3)c2c1=O | inconclusive: 5.86 µM [inhibitor, single point] | –
CCn1ncc(CNC(=O)CCCSc2nc(-c3ccco3)cc(C(F)(F)F)n2)c1C | inconclusive: 14.7 µM [inhibitor, single point] | –
Cc1cccc(Cn2cnc3c(N)c(C)c(C)cc32)c1 | active: 10.4 µM | –

Full records, looked up by structure. Values in the order: Potency	activity change, negative = inhibition
CCOc1ccc(NC(=O)Cn2cncc2-c2ccc([N+](=O)[O-])cc2)cc1 is listed with inconclusive: 18.5 µM [inhibitor, single point]	–
COc1cc(/C=C2/C(=N)N3OC(C)=CC3=NC2=O)ccc1OC(=O)c1ccco1 is listed with active: 13.1 µM	–

Further structures.

Structure (SMILES) | Potency | activity change, negative = inhibition
Cc1ccc(C(=O)NCCSc2ccc(Cl)cc2)cc1S(=O)(=O)Nc1ccccc1 | inconclusive: 18.5 µM [inhibitor, single point] | –
CCOCCn1cnc2sc(C(=O)NCC(=O)OCC)c(C)c2c1=O | – | inactive: 2.85%
Cc1cc(C)c2nc(NNC(=O)c3ccc(S(=O)(=O)N4CCCC(C)C4)cc3)sc2c1 (centres undefined) | active: 2.33 µM | –
Cc1ccc(CNCc2cc(Cl)ccc2O)cc1 | active: 7.38 µM | –
COc1cc(/C=C2\C(=N)N3N=C(N4CCOCC4)SC3=NC2=O)ccc1OC(=O)c1ccccc1 | inconclusive: 10.4 µM [inhibitor, single point] | –
COc1ccc(C2CC(c3ccccc3)=NN2C(=O)COC(=O)c2cc(S(=O)(=O)N3CCOCC3)ccc2Cl)cc1 (centres undefined) | inconclusive: 9.28 µM [inhibitor, partial curve, poor fit] | –
CCOc1ccccc1OCCOCCN1CC(C)OC(C)C1 (centres undefined) | inconclusive: 4.15 µM [inhibitor, partial curve] | –
CCN(CCCCOC(=O)c1ccc(OC)c(OC)c1)C(C)Cc1ccc(OC)cc1 (centres undefined) | inconclusive: 11.7 µM [inhibitor, single point] | –
CCOC(CNC(=O)Cc1c(C)nc2c(-c3ccccc3)c(C)nn2c1C)OCC | inconclusive: 9.28 µM [inhibitor, partial curve, poor fit] | –
CN(Cc1ccccc1)C(=O)CN1C(=O)C2C3C=CC(C3)C2C1=O (centres undefined) | inconclusive: 11.7 µM [inhibitor, partial curve, poor fit] | –
CCOc1ccc(OCCn2ccnc2)cc1 | – | inactive: 38.5%
O=C(c1ccc2ccccc2c1)N1CCCCC1 | – | inactive: 24.9%
COc1ccccc1N(CC(=O)NC1CCCCC1)S(=O)(=O)c1ccccc1 | – | inactive: 22.9%
CCOC(=O)c1ccc(NC(=O)Nc2ccccn2)cc1 | inconclusive: 11.7 µM [inhibitor, single point] | –
CC(=O)Nc1ccc(Nc2ccc(S(=O)(=O)C(F)(F)F)cc2[N+](=O)[O-])cc1 | inconclusive: 4.15 µM [inhibitor, partial curve, poor fit] | –
CC(=O)OC(/C(O)=C(\C#N)c1nc2ccccc2[nH]1)c1ccccc1 (centres undefined) | active: 9.28 µM | –
CCSc1nnc(NC(=O)C2CCN(S(=O)(=O)c3cc(C(F)(F)F)ccc3Cl)CC2)s1 | inconclusive: 5.86 µM [inhibitor, partial curve, poor fit] | –
CCCc1c(NC(=O)Nc2ccc(F)cc2)cnn1-c1ccccc1 | inconclusive: 0.0465 µM [inhibitor, full curve, poor fit] | –
CCOC(=O)Cn1nnnc1CN(Cc1cccs1)Cc1cc2cc(C)cc(C)c2[nH]c1=O | active: 10.4 µM | –
COc1cccc(NC(=O)c2ccccc2N2C(=O)C3C4C=CC(C4)C3C2=O)c1 (centres undefined) | inconclusive: 5.22 µM [inhibitor, partial curve, poor fit] | –
COc1cccc(NC(=O)CN(C)S(=O)(=O)c2ccc3c(c2)n(C)c(=O)c(=O)n3C)c1 | – | inactive: 36.8%
CCCCN(C(=O)CSc1nnc(-c2ccccc2)n1C)c1c(N)n(Cc2ccccc2)c(=O)[nH]c1=O | inconclusive: 14.7 µM [inhibitor, partial curve, poor fit] | –
